Molecular target: GABAA receptor (α1β3γ2L), α1 subunit (Homo sapiens, UniProt P14867+P18507+P28472)

Chains of the proteins cited; added tags and fusions are not shown. Residues count along the entry.
UniProt P14867, 28-456: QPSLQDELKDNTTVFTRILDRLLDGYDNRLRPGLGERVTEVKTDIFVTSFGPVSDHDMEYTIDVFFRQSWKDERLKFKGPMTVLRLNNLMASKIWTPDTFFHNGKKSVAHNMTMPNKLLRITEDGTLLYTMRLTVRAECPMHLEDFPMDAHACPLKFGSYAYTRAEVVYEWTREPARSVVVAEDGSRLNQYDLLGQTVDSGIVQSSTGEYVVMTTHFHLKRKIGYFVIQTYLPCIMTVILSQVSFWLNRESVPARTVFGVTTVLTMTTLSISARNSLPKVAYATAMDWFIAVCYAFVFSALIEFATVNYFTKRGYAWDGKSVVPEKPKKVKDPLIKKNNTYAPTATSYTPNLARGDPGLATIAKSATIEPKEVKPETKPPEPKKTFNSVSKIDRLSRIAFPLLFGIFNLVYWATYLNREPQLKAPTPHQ
UniProt P18507, 40-475: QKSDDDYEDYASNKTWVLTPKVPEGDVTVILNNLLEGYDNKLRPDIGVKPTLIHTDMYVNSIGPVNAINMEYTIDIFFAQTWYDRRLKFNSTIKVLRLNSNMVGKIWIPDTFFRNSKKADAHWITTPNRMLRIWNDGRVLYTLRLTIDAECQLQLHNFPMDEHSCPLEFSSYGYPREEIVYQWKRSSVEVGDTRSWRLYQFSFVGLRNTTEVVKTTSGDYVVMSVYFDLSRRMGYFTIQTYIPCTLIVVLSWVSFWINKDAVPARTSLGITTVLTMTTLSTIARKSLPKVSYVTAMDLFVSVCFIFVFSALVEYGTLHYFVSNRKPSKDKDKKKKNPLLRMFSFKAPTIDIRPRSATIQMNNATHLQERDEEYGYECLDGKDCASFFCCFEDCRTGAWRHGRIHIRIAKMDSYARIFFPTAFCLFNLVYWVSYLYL
UniProt P28472, 26-473: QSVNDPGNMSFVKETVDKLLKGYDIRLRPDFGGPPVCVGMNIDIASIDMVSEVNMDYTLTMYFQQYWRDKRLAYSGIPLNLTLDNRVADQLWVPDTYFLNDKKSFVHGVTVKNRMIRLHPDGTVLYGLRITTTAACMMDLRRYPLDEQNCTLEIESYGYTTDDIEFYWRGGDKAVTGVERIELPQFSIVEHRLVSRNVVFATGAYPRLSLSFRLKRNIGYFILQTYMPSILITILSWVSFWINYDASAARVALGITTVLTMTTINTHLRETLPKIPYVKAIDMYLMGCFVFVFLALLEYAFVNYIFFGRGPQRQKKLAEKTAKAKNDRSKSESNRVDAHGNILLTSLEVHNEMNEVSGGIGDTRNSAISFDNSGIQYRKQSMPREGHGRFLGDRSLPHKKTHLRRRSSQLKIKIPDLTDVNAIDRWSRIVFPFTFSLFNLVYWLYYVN

## CN1C(=O)CN=C(c2ccccc2)c2cc(Cl)ccc21 [Diazepam]
  two-electrode voltage clamp; potentiation of EC5 GABA currents at 1 and 100 μM: ~ 1 μM

Reference: publication PMC7006677 (Pharmacological reports : PR, 2020)
